The text below walks through data of doi:10.1101/2022.10.20.512913.

Sequences of proteins named here, by UniProt entry; tags and fusion partners are left off.
UniProt Q8VZQ4: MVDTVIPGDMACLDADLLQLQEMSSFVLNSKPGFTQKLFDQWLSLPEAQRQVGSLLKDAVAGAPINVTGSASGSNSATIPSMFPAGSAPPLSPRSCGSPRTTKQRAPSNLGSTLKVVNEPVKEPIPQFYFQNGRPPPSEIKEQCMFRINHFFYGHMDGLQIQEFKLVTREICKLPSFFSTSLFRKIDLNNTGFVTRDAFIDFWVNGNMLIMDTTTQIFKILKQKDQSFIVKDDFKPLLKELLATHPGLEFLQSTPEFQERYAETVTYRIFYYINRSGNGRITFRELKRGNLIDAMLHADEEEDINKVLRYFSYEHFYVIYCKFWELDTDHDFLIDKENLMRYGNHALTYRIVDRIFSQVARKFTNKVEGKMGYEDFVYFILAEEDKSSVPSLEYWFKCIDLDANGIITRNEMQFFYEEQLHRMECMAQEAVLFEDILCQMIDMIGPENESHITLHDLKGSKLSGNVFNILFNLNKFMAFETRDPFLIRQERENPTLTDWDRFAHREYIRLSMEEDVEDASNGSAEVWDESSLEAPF

The target in assay [1] is T1, FLOT2-GFP (Arabidopsis), Q4V3D6.
T1 chain: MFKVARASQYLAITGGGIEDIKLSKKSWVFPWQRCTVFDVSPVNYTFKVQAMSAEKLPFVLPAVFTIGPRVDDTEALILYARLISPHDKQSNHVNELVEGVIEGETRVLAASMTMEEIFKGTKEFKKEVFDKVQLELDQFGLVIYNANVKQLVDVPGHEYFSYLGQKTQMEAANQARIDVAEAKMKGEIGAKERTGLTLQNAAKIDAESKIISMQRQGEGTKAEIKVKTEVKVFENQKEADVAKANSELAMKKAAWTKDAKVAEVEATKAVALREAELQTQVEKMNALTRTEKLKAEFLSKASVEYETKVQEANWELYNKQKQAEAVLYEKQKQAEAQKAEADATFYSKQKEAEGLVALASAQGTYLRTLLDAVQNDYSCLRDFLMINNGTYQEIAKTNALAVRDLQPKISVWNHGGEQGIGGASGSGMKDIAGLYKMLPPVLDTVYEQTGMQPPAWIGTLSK
The experiment in a line: co-IP. To be noted: remark: other sources report otherwise.

The target in assay [2] is PP2A-B’’γ-YFP (Arabidopsis) (UniProt Q8VZQ4). Kind of assay: co-IP.

No constants are given. Whether binding was seen depends on the method and setting. Binding seen in cells or lysates may run through a third protein. Some entries that bind do so weakly or less than the wild type. For some assays here: Sequences can lack the tags named with a protein.

B1: PIP2;1-mCherry, P43286 1-287 (protein)
chain: MAKDVEAVPGEGFQTRDYQDPPPAPFIDGAELKKWSFYRAVIAEFVATLLFLYITVLTVIGYKIQSDTDAGGVDCGGVGILGIAWAFGGMIFILVYCTAGISGGHINPAVTFGLFLARKVSLPRALLYIIAQCLGAICGVGFVKAFQSSYYTRYGGGANSLADGYSTGTGLAAEIIGTFVLVYTVFSATDPKRSARDSHVPVLAPLPIGFAVFMVHLATIPITGTGINPARSFGAAVIYNKSKPWDDHWIFWVGPFIGAAIAAFYHQFVLRASGSKSLGSFRSAANV
Consider B1, for which the binding entry in assay [1] was “binds”.

B2: PIP2;1-mCherry (protein, UniProt P43286 1-287)
chain: B1 chain
As to B2, the binding result in assay [2] is recorded as “binds”.
